Data as given in PubChem BioAssay AID602196 (INSERM, 2012).
Here is one part, drawn at random, of about 23,000 reagents tested. 455 of all reagents (2%) were called active. 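Active includes both protection and sensitisation; some change values fall well beyond the stated -50 to +50 range.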 Entries without a mark were called inactive. Reagents against one gene are numbered here. The record does not give: the amount of reagent.

- Test: 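Knock-downs that protect lung cancer cells from cisplatin or sensitise them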
- Cells: human A549 lung cancer cells
- Knock-down reagent: siRNA pair against human genes
- Duration: 48 h transfection before cisplatin; time from cisplatin to read-out not stated
- Challenge: cisplatin at a dose killing half of control-siRNA cells; exact dose and duration not given
- Measurement: 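Cisplatin cell death as a shift from the 50% death seen with control siRNA; siRNAs toxic or growth-blocking alone scored 0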
- Reading the numbers: two-siRNA summed score (-2 to +2): higher = both siRNAs protect from cisplatin killing; -2 means both sensitise; mean protection from cisplatin (shift in death) and protection from cisplatin (shift in death), siRNA C and protection from cisplatin (shift in death), siRNA D: higher = protection from cisplatin killing
- Call rule: 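siRNAs harmful alone (LDH or WST-1) get 0; others get +1 for less and -1 for more cisplatin killing; genes are active when the two siRNAs give the same sign, summing to ±2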
- Meaning of the calls: active = both siRNAs shift cisplatin killing the same way; inactive = no consistent shift, or siRNA harmful alone

Gene | reagent | two-siRNA summed score (-2 to +2) | mean protection from cisplatin (shift in death) (%) | protection from cisplatin (shift in death), siRNA C (%) | protection from cisplatin (shift in death), siRNA D (%)
ARHGAP45 (Rho GTPase activating protein 45) | 1 | 0 | 2.3 | 7.7 | -3.1
XAGE3 (X antigen family member 3) | 1 | 0 | 0.7 | -0.2 | 1.6
ETV3L (ETS variant transcription factor 3 like) | 1 | 0 | 11 | 4 | 17.9
AMT (aminomethyltransferase) | 1 | 0 | -0.9 | -0.4 | -1.4
APOA5 (apolipoprotein A5) | 1 | 0 | 0.7 | -7.2 | 8.6
APOH (apolipoprotein H) | 1 | 1 | 7.2 | 25.2 | -10.7
ST13P5 (ST13, Hsp70 interacting protein pseudogene 5) | 1 | 0 | 11 | 8.6 | 13.5
RMP64 (ribonuclease MRP subunit p64) | 1 | 0 | 9.5 | 5.4 | 13.6
MAP3K8 (mitogen-activated protein kinase kinase kinase 8) | 1 | 1 | 7.1 | 1.8 | 12.4
MYO15A (myosin XVA) | 1 | 0 | 1.5 | -0.7 | 3.7
TNFRSF12A (TNF receptor superfamily member 12A) | 1 | 0 | -1.6 | 9 | -12.2
SPANXN5 (SPANX family member N5) | 1 | 1 | 7.6 | -5.1 | 20.3
OR9G4 (olfactory receptor family 9 subfamily G member 4) | 1 | 0 | 14.1 | 12 | 16.2
HLX (H2.0 like homeobox) | 1 | 1 | 8.4 | 8.1 | 8.7
SPMIP4 (sperm microtubule inner protein 4) | 1 | 2 (active) | 10.8 | 9.3 | 12.2
RPA3 (replication protein A3) | 1 | -2 (active) | -12.9 | -16.5 | -9.2
PHLDB3 (pleckstrin homology like domain family B member 3) | 1 | 0 | 1.2 | -3.6 | 6
WDR90 (WD repeat domain 90) | 1 | -1 | -9.8 | -14.1 | -5.6
WDR90 (WD repeat domain 90) | 2 | -1 | -5.7 | 4.1 | -15.5
LOC389108 | 1 | 0 | 5.3 | 7.5 | 3
KIAA0527 | 1 | 1 | 11.2 | 10 | 12.4
GPANK1 (G-patch domain and ankyrin repeats 1) | 1 | 1 | 8.8 | -1.6 | 19.2
PCDHA9 (protocadherin alpha 9) | 1 | -1 | -10.3 | -2 | -18.6
LOC441771 | 1 | 1 | 11.7 | -2.4 | 25.8
RIC3 (RIC3 acetylcholine receptor chaperone) | 1 | 0 | 4.1 | -0.3 | 8.4
TFDP3 (transcription factor Dp family member 3) | 1 | 0 | 0 | -6.5 | 6.4
PNKD (PNKD metallo-beta-lactamase domain containing) | 1 | 1 | 10.4 | 22.1 | -1.3
ATP6V1G3 (ATPase H+ transporting V1 subunit G3) | 1 | 0 | 10.6 | 16.1 | 5.1
ULK4 (unc-51 like kinase 4) | 1 | 0 | 5.7 | 6.5 | 5
BORA (BORA aurora kinase A activator) | 1 | -1 | -1.9 | 7.5 | -11.2
ITGA3 (integrin subunit alpha 3) | 1 | 0 | -12.4 | -4.3 | -20.5
ERVW-1 (endogenous retrovirus group W member 1, envelope) | 1 | 0 | 9.7 | 6.6 | 12.8
SLC1A6 | 1 | 0 | 10.8 | 10 | 11.6
GPCPD1 (glycerophosphocholine phosphodiesterase 1) | 1 | 1 | 13.2 | 10.8 | 15.5
CD6 (CD6 molecule) | 1 | 0 | 12 | 8.5 | 15.4
KLHL13 (kelch like family member 13) | 1 | 0 | 12.7 | 16.5 | 9
CKLF (chemokine like factor) | 1 | 0 | -14.4 | -7.4 | -21.3
CCDC78 (coiled-coil domain containing 78) | 1 | -1 | -3.7 | 5.2 | -12.5
LOC388114 | 1 | 1 | 12.8 | 9.6 | 16
